{"sequences": {"note": "Chains of the proteins cited; added tags and fusions are not shown.", "UniProt O60260": "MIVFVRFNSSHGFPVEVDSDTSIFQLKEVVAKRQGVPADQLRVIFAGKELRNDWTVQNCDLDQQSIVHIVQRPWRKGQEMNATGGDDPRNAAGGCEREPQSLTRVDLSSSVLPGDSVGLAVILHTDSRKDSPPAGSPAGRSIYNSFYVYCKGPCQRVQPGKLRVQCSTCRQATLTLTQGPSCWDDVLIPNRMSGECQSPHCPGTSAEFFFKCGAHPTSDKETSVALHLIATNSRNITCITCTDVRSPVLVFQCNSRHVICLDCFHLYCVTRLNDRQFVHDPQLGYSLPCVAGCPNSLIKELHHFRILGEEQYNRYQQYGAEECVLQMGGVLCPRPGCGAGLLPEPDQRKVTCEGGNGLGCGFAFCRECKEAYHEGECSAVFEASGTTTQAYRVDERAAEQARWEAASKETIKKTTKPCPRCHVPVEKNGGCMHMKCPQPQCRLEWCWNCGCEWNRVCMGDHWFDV"}, "source": "paper PMC11904967", "biological_target": "T1, His‐HACD2 expressed in HEK‐293T cells (human) (UniProt Q6Y1H2)", "T1 sequence": "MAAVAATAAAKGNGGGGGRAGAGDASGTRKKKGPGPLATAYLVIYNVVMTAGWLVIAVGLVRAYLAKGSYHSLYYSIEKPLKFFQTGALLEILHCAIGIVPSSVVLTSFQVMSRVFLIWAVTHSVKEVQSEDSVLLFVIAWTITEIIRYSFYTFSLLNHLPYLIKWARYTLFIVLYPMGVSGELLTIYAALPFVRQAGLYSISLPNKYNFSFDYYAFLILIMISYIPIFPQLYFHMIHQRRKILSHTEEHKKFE", "assay": "affinity purification with mass spectrometry; HEK-293T cells transfected with His-HACD2; IP with an anti-His antibody or IgG, protein A/G 2 h at room temperature, SDS-PAGE, mass spectrometry", "note": "Results are given in words; binding and its absence hold for the method and conditions named. Binding seen in cells or lysates may run through a third protein. A yes stands for co-enrichment or nearness to the bait. Other partners may have been found. Tags and fused reporters may be left off the sequences shown.", "data": [{"substance": "E3 ubiquitin‐protein ligase parkin (PRKN), found in the HACD2 immunoprecipitate of HEK‐293T cells (from UniProt O60260 1-465)", "values": [{"measurement": "binding", "value": "binds"}]}]}
